Measured values from publication PMC4227792 (Nucleic Acids Research, 2014).
These are yes or no findings as the source states them, for the method shown. In cells and extracts the contact can be indirect. Some binding calls cover weakened binding; strength is not graded here. Where a sequence is shown, tags or fusion partners need not be part of it.

Biological target: T1, Strep-Csl4 exosome of Sulfolobus solfataricus, reconstituted (His6-Rrp41, His6-Rrp42 and Strep-tagged Csl4) (Sulfolobus solfataricus) (UniProt Q9UXC2+Q9UXC0+Q980J9)
T1 sequence 1: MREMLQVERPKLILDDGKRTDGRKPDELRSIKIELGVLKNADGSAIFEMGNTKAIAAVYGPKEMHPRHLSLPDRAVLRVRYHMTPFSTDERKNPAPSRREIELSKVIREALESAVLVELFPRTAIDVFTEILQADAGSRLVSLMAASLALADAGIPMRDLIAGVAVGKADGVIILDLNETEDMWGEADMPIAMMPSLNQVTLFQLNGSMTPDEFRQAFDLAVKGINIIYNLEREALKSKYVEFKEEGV
T1 sequence 2: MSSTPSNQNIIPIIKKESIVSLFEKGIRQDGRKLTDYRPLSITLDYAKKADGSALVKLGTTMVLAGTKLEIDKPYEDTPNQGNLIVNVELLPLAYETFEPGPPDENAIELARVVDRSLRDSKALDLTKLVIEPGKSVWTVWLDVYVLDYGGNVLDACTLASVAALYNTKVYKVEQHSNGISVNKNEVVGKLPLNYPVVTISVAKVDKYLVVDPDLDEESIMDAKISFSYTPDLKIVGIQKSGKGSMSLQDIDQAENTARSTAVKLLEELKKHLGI
T1 sequence 3: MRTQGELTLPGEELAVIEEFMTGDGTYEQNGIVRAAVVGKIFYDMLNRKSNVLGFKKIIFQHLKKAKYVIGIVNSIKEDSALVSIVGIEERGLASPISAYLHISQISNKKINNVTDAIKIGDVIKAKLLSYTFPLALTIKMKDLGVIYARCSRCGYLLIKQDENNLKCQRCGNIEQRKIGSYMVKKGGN
Experiment: pull-down; reconstituted Strep-Csl4 exosome mixed with E. coli cell-free extract holding the DnaG variant; buffer P0 (10 mM Tris pH 8.0, 5 mM MgCl2, 0.5 mM EDTA, 200 mM NaCl, 5% glycerol, 0.05% Tween 20, 0.2 mM DTT), 2 h at room temperature; Strep-Tactin Sepharose, eluted with 5 mM D-desthiobiotin; SDS-PAGE with silver staining, western blot with DnaG-directed serum; only the target purified

B1: DnaG-K6AY7A (non-tagged NTD double mutant of DnaG) (protein, UniProt P95980 1-406)
chain: MSFQMAADIRLRFEVEGIVEKTDVIGAIFGQTENLFGDEFDLRELQDKGRLGRIIVEVKTKGGKSEGEIIIPSNLDRIETALIAAMVESVDKVGPYNSKFELIEIEDIRAEKLKKIIERAKGILSSWSKEKSLDIKEVINEISSAVKVGEITEYGPERLPAGPDVDKDPNLIIVEGRADVINLLRYGYKNVIAVEGATSRIPETLINLSKMKKTVIAFLDGDHGGDLILKELLSNNVKIDFVARAPIGREVEELTGKEIAKALSNMMPLTQYLKKVQEAEQAIAKNVIAKEEKPIQSETTQQVVQITLPQNILEEIKKLPGTLEGVLYDNNWNLIEKVQVRDIIPKLEAYEDNKVAYIIFDGVITQRLLDLASQKNIKMIIGARIGGINKRPQNVDILTFTDIISS
- binding: binds
